Consider three substances from paper PMC7367482, “An Erg11 lanosterol 14-α-demethylase-Arv1 complex is required for Candida albicans virulence” (PLoS ONE, 2020).

Results are given in words; binding and its absence hold for the method and conditions named. Binding seen in cells or lysates may run through a third protein. Binding calls can cover weak binding; strength is not graded here.

This assay has as its target CaErg11^(Y132L F145L)-MYC (C. albicans) (UniProt P10613). Nature of the assay: co-IP; whole cell lysates of Scarv1 cells co-expressing Arv1-HA and Erg11-MYC; 1 mg protein, anti-HA (16B12) or anti-MYC (9E10) 4 hr at 4°C, Protein A agarose; washes with 10 mM HEPES pH 7.5, 200 mM NaCl, 5 mM EDTA, 0.1% Nonidet P-40; western.
“CaArv1^C3A-HA (from UniProt Q5ANH2 1-296)”: the binding result is given as “binds”.

Turning to “CaArv1^C28A-HA (from UniProt Q5ANH2 1-296)”, the binding result is listed as “no binding”.

With “CaArv1^Y38A-HA (from UniProt Q5ANH2 1-296)”, the binding entry was “binds”.
